No constants are given. Whether binding was seen depends on the method and setting. In cells and extracts the contact can be indirect. These calls come from enrichment with a bait or labelling near it, and not all partners need be listed.
B1: synergin gamma, endogenous (protein, UniProt Q9UMZ2 1-1314)
chain: MALRPGAGSGGGGAAGAGAGSAGGGGFMFPVAGGIRPPQAGLMPMQQQGFPMVSVMQPNMQGIMGMNYSSQMSQGPIAMQAGIPMGPMPAAGMPYLGQAPFLGMRPPGPQYTPDMQKQFAEEQQKRFEQQQKLLEEERKRRQFEEQKQKLRLLSSVKPKTGEKSRDDALEAIKGNLDGFSRDAKMHPTPASHPKKPGPSLEEKFLVSCDISTSGQEQIKLNTSEVGHKALGPGSSKKYPSLMASNGVAVDGCVSGTTTAEAENTSDQNLSIEESGVGVFPSQDPAQPRMPPWIYNESLVPDAYKKILETTMTPTGIDTAKLYPILMSSGLPRETLGQIWALANRTTPGKLTKEELYTVLAMIAVTQRGVPAMSPDALNQFPAAPIPTLSGFSMTLPTPVSQPTVIPSGPAGSMPLSLGQPVMGINLVGPVGGAAAQASSGFIPTYPANQVVKPEEDDFQDFQDASKSGSLDDSFSDFQELPASSKTSNSQHGNSAPSLLMPLPGTKALPSMDKYAVFKGIAADKSSENTVPPGDPGDKYSAFRELEQTAENKPLGESFAEFRSAGTDDGFTDFKTADSVSPLEPPTKDKTFPPSFPSGTIQQKQQTQVKNPLNLADLDMFSSVNCSSEKPLSFSAVFSTSKSVSTPQSTGSAATMTALAATKTSSLADDFGEFSLFGEYSGLAPVGEQDDFADFMAFSNSSISSEQKPDDKYDALKEEASPVPLTSNVGSTVKGGQNSTAASTKYDVFRQLSLEGSGLGVEDLKDNTPSGKSDDDFADFHSSKFSSINSDKSLGEKAVAFRHTKEDSASVKSLDLPSIGGSSVGKEDSEDALSVQFDMKLADVGGDLKHVMSDSSLDLPTVSGQHPPAADIEDLKYAAFGSYSSNFAVSTLTSYDWSDRDDATQGRKLSPFVLSAGSGSPSATSILQKKETSFGSSENITMTSLSKVTTFVSEDALPETTFPALASFKDTIPQTSEQKEYENRDYKDFTKQDLPTAERSQEATCPSPASSGASQETPNECSDDFGEFQSEKPKISKFDFLVATSQSKMKSSEEMIKSELATFDLSVQGSHKRSLSLGDKEISRSSPSPALEQPFRDRSNTLNEKPALPVIRDKYKDLTGEVEENERYAYEWQRCLGSALNVIKKANDTLNGISSSSVCTEVIQSAQGMEYLLGVVEVYRVTKRVELGIKATAVCSEKLQQLLKDIDKVWNNLIGFMSLATLTPDENSLDFSSCMLRPGIKNAQELACGVCLLNVDSRSRKEEKPAEEHPKKAFNSETDSFKLAYGGHQYHASCANFWINCVEPKPPGLVLPDLL
B2: Sec24A, endogenous (protein, UniProt O95486 1-1093)
chain: MSQPGIPASGGAPASLQAQNGAALASGSPYTNGPVQNALLSSQESVSQGYNFQLPGSYPHPIPAKTLNPVSGQSNYGGSQGSGQTLNRPPVASNPVTPSLHSGPAPRMPLPASQNPATTPMPSSSFLPEANLPPPLNWQYNYPSTASQTNHCPRASSQPTVSGNTSLTTNHQYVSSGYPSLQNSFIKSGPSVPPLVNPPLPTTFQPGAPHGPPPAGGPPPVRALTPLTSSYRDVPQPLFNSAVNQEGITSNTNNGSMVVHSSYDEIEGGGLLATPQLTNKNPKMSRSVGYSYPSLPPGYQNTTPPGATGVPPSSLNYPSGPQAFTQTPLGANHLTTSMSGLSLQPEGLRVVNLLQERNMLPSTPLKPPVPNLHEDIQKLNCNPELFRCTLTSIPQTQALLNKAKLPLGLLLHPFKDLVQLPVVTSSTIVRCRSCRTYINPFVSFLDQRRWKCNLCYRVNDVPEEFLYNPLTRVYGEPHRRPEVQNATIEFMAPSEYMLRPPQPPVYLFVFDVSHNAVETGYLNSVCQSLLDNLDLLPGNTRTKIGFITFDSTIHFYGLQESLSQPQMLIVSDIEDVFIPMPENLLVNLNESKELVQDLLKTLPQMFTKTLETQSALGPALQAAFKLMSPTGGRMSVFQTQLPTLGVGALKPREEPNHRSSAKDIHMTPSTDFYKKLALDCSGQQVAVDLFLLSGQYSDLASLGCISRYSAGSVYYYPSYHHQHNPVQVQKLQKELQRYLTRKIGFEAVMRIRCTKGLSIHTFHGNFFVRSTDLLSLPNVNPDAGYAVQMSVEESLTDTQLVSFQSALLYTSSKGERRIRVHTLCLPVVSTLNDVFLGADVQAISGLLANMAVDRSMTASLSDARDALVNAVIDSLSAYRSSVLSNQQPGLMVPFSLRLFPLFVLALLKQKSFQTGTNARLDERIFAMCQVKNQPLVYLMLTTHPSLYRVDNLSDEGALNISDRTIPQPPILQLSVEKLSRDGAFLMDAGSVLMLWVGKNCTQNFLSQVLGVQNYASIPQPMTDLPELDTPESARIIAFISWLREQRPFFPILYVIRDESPMKANFLQNMIEDRTESALSYYEFLLHIQQQVNK

Chains of the proteins cited; added tags and fusions are not shown.
UniProt O54851: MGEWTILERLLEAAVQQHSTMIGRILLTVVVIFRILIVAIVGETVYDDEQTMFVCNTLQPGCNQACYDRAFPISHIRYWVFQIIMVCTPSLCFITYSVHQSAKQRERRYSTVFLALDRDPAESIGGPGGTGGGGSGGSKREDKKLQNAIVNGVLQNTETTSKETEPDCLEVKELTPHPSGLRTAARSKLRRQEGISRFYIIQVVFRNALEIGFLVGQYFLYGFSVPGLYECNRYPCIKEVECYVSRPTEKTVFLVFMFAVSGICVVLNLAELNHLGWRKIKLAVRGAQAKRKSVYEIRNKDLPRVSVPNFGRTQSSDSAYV
UniProt Q12923: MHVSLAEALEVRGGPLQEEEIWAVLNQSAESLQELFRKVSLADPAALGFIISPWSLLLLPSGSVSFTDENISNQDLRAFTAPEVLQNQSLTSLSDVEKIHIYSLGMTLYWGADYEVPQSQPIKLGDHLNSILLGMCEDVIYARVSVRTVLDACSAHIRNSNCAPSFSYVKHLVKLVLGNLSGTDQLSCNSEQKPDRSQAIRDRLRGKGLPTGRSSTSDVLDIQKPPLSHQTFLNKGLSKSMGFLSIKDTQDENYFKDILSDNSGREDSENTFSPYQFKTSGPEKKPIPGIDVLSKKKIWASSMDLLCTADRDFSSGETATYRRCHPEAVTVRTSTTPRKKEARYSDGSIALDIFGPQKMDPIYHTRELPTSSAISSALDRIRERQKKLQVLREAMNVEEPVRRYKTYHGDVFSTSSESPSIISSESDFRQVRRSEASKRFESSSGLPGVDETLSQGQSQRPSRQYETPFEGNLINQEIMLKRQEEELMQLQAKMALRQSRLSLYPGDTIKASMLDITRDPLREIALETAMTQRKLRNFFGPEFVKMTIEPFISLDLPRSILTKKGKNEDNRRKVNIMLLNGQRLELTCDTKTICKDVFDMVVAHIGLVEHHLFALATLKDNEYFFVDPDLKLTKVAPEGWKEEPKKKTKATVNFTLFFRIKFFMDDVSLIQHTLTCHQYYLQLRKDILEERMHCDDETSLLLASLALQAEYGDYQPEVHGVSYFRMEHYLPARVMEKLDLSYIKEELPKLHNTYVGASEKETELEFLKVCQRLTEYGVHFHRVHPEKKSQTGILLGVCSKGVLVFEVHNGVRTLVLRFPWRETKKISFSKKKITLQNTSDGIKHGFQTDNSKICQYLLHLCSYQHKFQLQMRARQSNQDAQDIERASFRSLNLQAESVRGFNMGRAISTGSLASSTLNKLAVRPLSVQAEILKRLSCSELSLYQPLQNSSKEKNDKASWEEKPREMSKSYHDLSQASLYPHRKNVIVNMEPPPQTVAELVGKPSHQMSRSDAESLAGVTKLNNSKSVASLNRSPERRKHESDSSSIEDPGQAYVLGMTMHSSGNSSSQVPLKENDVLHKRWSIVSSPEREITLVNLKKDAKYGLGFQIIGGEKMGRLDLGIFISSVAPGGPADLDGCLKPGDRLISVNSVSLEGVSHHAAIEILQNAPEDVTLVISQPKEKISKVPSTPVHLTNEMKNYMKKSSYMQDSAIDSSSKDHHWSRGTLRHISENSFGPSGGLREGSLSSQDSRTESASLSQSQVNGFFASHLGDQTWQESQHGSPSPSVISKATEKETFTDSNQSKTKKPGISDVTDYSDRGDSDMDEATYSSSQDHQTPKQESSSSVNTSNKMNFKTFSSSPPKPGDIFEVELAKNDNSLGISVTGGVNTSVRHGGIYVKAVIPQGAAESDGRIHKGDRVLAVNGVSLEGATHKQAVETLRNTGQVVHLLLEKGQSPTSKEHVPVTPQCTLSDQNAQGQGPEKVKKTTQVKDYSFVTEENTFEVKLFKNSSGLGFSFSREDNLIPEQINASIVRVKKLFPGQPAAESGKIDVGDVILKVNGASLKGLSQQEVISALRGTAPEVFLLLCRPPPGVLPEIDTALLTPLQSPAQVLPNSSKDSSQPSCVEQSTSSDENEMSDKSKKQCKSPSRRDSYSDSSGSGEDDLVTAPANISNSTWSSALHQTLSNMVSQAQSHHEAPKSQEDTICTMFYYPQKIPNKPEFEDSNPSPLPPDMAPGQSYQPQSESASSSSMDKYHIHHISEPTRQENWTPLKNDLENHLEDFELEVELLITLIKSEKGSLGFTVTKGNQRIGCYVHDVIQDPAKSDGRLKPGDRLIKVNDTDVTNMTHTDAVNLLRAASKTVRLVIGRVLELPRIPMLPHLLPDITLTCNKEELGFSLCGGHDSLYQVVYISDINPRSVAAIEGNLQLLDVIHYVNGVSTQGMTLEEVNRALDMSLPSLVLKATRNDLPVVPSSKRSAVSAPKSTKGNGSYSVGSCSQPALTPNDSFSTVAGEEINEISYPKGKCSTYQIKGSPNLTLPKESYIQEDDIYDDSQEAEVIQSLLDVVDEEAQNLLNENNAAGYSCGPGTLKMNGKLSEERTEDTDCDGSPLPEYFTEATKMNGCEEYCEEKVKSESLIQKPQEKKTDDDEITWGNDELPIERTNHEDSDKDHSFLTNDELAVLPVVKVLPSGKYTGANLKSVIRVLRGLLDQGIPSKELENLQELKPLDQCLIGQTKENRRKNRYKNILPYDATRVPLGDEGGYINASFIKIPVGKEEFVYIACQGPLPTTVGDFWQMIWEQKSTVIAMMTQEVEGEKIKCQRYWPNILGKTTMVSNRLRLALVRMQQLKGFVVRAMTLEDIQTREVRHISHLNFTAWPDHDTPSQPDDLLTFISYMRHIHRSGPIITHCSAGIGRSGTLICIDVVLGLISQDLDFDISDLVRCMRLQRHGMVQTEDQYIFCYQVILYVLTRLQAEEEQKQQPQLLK

What follows are molecules tested against Cx36-EGFP (UniProt O54851) (assay: proximity labelling; BioID (BLITZ): HEK293T co-transfected with Cx36-EGFP, Cx36 and V5-dGBP-TurboID, 50 µM biotin for 3 h; streptavidin beads; mass spectrometry and western blot; control: cells with V5-TurboID-dGBP only).
“protein tyrosine phosphatase non-receptor type 13 (PTPN13), endogenous (from UniProt Q12923 1-2485)” was tested, and the binding was “binds”. B1 was tested, and the binding was “binds”. With B2 the binding was “binds”.

Source: PMC11470877
